In patent publication US20250283871A1, “COMPOSITIONS AND METHODS FOR MODULATING THE INTERACTION BETWEEN SS18-SSX FUSION ONCOPROTEIN AND NUCLEOSOMES” (Dana-Farber Cancer Institute, Inc., priority 2020, published 2025):

System: BAF complex subunits and histone proteins
Experiment: Mass spectrometry proteomics of purified HA-SS18 WT and HA-SS18-SSX1 complexes (Tables 5A-5E)
Set-up: species or system human
Settings: for Total / Unique: HA-SS18SSX1_CHR_peptides; for Total: total peptides of the identified protein; for Unique: unique peptides of the identified protein
[1] = HA-SS18WT_CHR_peptides: protein identified in HA-SS18 WT BAF complex purification from nuclease-treated solubilized chromatin (CHR), HEK-293T
[2] = HA-SS18WT_NE_peptides: HA-SS18 WT complexes purified from nuclear extract (NE), HEK-293T, label = protein identified (Gene Symbol)
[3] = HA-SS18WT_CHR_peptides: HA-SS18 WT purification from nuclease-treated solubilized chromatin (CHR), HEK-293T, label = protein identified
[4] = HA-SS18SSX1 purification, NE (soluble nuclear extract) fraction, HEK-293T, peptides per identified protein
[5] = HA-SS18SSX1_CHR_peptides: protein identified in the HA-SS18-SSX1 purification from solubilized chromatin (CHR), HEK-293T
[6] = HA-SS18SSX1_NE_peptides: protein co-purified with HA-SS18-SSX1 BAF complexes from soluble nuclear extract (NE), HEK-293T cells
[7] = HA-SS18WT_NE_peptides: proteins co-purified with HA-SS18 WT from nuclear extract (NE), HEK-293T

| Molecule | Total | Unique | Total (total peptides) [1] | Unique (unique peptides) [1] | also measured |
| --- | --- | --- | --- | --- | --- |
| ZRANB2 (protein, UniProt O95218 1-330, looked up) Zinc finger Ran-binding …: MSTKNFRVSDGDWICPDKKCGNVNFARRTSCNRCGREKTTEAKMMKAGGTEIGKTLAEKSRGLFSANDWQCKTCSNVNWARRSECNMCNTPKYAKLEERTGYGGGFNERENVEYIEREESDGEYDEFGRKKKKYRGKAVGPASILKEVEDKESEGEEEDEDEDLSKYKLDEDEDEDDADLSKYNLDASEEEDSNKKKSNRRSRSKSRSSHSRSSSRSSSPSSSRSRSRSRSRSSSSSQSRSRSSSRERSRSRGSKSRSSSRSHRGSSSPRKRSYSSSSSSPERNRKRSRSRSSSSGDRKKRRTRSRSPERRHRSSSGSSHSGSRSSSKKK | 4 | 3 |  |  |  |
| MYO1B (protein, UniProt O43795 1-1136, looked up) Unconventional myosin-Ib: MAKMEVKTSLLDNMIGVGDMVLLEPLNEETFINNLKKRFDHSEIYTYIGSVVISVNPYRSLPIYSPEKVEEYRNRNFYELSPHIFALSDEAYRSLRDQDKDQCILITGESGAGKTEASKLVMSYVAAVCGKGAEVNQVKEQLLQSNPVLEAFGNAKTVRNDNSSRFGKYMDIEFDFKGDPLGGVISNYLLEKSRVVKQPRGERNFHVFYQLLSGASEELLNKLKLERDFSRYNYLSLDSAKVNGVDDAANFRTVRNAMQIVGFMDHEAESVLAVVAAVLKLGNIEFKPESRVNGLDESKIKDKNELKEICELTGIDQSVLERAFSFRTVEAKQEKVSTTLNVAQAYYARDALAKNLYSRLFSWLVNRINESIKAQTKVRKKVMGVLDIYGFEIFEDNSFEQFIINYCNEKLQQIFIELTLKEEQEEYIREDIEWTHIDYFNNAIICDLIENNTNGILAMLDEECLRPGTVTDETFLEKLNQVCATHQHFESRMSKCSRFLNDTSLPHSCFRIQHYAGKVLYQVEGFVDKNNDLLYRDLSQAMWKASHALIKSLFPEGNPAKINLKRPPTAGSQFKASVATLMKNLQTKNPNYIRCIKPNDKKAAHIFNEALVCHQIRYLGLLENVRVRRAGYAFRQAYEPCLERYKMLCKQTWPHWKGPARSGVEVLFNELEIPVEEYSFGRSKIFIRNPRTLFKLEDLRKQRLEDLATLIQKIYRGWKCRTHFLLMKKSQIVIAAWYRRYAQQKRYQQTKSSALVIQSYIRGWKARKILRELKHQKRCKEAVTTIAAYWHGTQARRELRRLKEEARNKHAIAVIWAYWLGSKARRELKRLKEEARRKHAVAVIWAYWLGLKVRREYRKFFRANAGKKIYEFTLQRIVQKYFLEMKNKMPSLSPIDKNWPSRPYLFLDSTHKELKRIFHLWRCKKYRDQFTDQQKLIYEEKLEASELFKDKKALYPSSVGQPFQGAYLEINKNPKYKKLKDAIEEKIIIAEVVNKINRANGKSTSRIFLLTNNNLLLADQKSGQIKSEVPLVDVTKVSMSSQNDGFFAVHLKEGSEAASKGDFLFSSDHLIEMATKLYRTTLSQTKQKLNIEISDEFLVQFRQDKVCVKFIQGNQKNGSVPTCKRKNNRLLEVAVP | 4 | 4 | 1 | 1 | Total (peptides) [2]: 11; Unique (peptides) [2]: 11 |
| ZNF512 (protein, UniProt Q96ME7 1-567, looked up) Zinc finger protein 512: MSSRLGAVPATSGPTTFKQQRSTRIVGAKNSRTQCSIKDNSFQYTIPHDDSLSGSSSASSCEPVSDFPASFRKSTYWMKMRRIKPAATSHVEGSGGVSAKGKRKPRQEEDEDYREFPQKKHKLYGRKQRPKTQPNPKSQARRIRKEPPVYAAGSLEEQWYLEIVDKGSVSCPTCQAVGRKTIEGLKKHMENCKQEMFTCHHCGKQLRSLAGMKYHVMANHNSLPILKAGDEIDEPSERERLRTVLKRLGKLRCMRESCSSSFTSIMGYLYHVRKCGKGAAELEKMTLKCHHCGKPYRSKAGLAYHLRSEHGPISFFPESGQPECLKEMNLESKSGGRVQRRSAKIAVYHLQELASAELAKEWPKRKVLQDLVPDDRKLKYTRPGLPTFSQEVLHKWKTDIKKYHRIQCPNQGCEAVYSSVSGLKAHLGSCTLGNFVAGKYKCLLCQKEFVSESGVKYHINSVHAEDWFVVNPTTTKSFEKLMKIKQRQQEEEKRRQQHRSRRSLRRRQQPGIELPETELSLRVGKDQRRNNEELVVSASCKEPEQEPVPAQFQKVKPPKTNHKRGRK | 4 | 4 |  |  | Total (peptides) [3]: 4; Unique (peptides) [3]: 4 |
| DDX51 (protein, UniProt Q8N8A6 2-666, looked up) ATP-dependent RNA helicase …: ALFYVARYPGPDAAAAAGPEGAEAGAHGRARALLERLQSRARERQQQREPAQTEAAASTEPATRRRRRPRRRRRVNDAEPGSPEAPQGKRRKADGEDAGAESNEEAPGEPSAGSSEEAPGEPSAGSSEEAPGERSTSASAEAAPDGPALEEAAGPLVPGLVLGGFGKRKAPKVQPFLPRWLAEPNCVRRNVTEDLVPIEDIPDVHPDLQKQLRAHGISSYFPVQAAVIPALLESAACGFLVGRGGYRPSDLCVSAPTGSGKTLAFVIPVVQALLSRVVCHIRALVVLPTKELAQQVSKVFNIYTDATPLRVSLVTGQKSLAKEQESLVQKTADGYRCLADIVVATPGRLVDHIDQTPGFSLQQLRFLIIDEADRMIDSMHQSWLPRVVAAAFQSEDPADPCALLQRRQAQAVTAASTCCPQMPLQKLLFSATLTQNPEKLQQLGLHQPRLFSTGLAHRGLEDTDGDGDSGKYAFPVGLTHHYVPCSLSSKPLVVLHLVLEMGFSRVLCFTNSRENSHRLFLLVQAFGGVDVAEFSSRYGPGQRRMILKQFEQGKIQLLISTDATARGIDVQGVELVVNYDAPQYLRTYVHRVGRTARAGKTGQAFTLLLKVQERRFLRMLTEAGAPELQRHELSSKLLQPLVPRYEEALSQLEESVKEERKQRAA | 4 | 4 |  |  | Total (total peptides) [4]: 8; Unique (unique peptides) [4]: 7; Total (peptides) [3]: 7; Unique (peptides) [3]: 6; Total (peptides) [2]: 8; Unique (peptides) [2]: 7 |
| THRAP3 (protein, UniProt Q9Y2W1 2-955, looked up) Thyroid hormone …: SKTNKSKSGSRSSRSRSASRSRSRSFSKSRSRSRSLSRSRKRRLSSRSRSRSYSPAHNRERNHPRVYQNRDFRGHNRGYRRPYYFRGRNRGFYPWGQYNRGGYGNYRSNWQNYRQAYSPRRGRSRSRSPKRRSPSPRSRSHSRNSDKSSSDRSRRSSSSRSSSNHSRVESSKRKSAKEKKSSSKDSRPSQAAGDNQGDEAKEQTFSGGTSQDTKASESSKPWPDATYGTGSASRASAVSELSPRERSPALKSPLQSVVVRRRSPRPSPVPKPSPPLSSTSQMGSTLPSGAGYQSGTHQGQFDHGSGSLSPSKKSPVGKSPPSTGSTYGSSQKEESAASGGAAYTKRYLEEQKTENGKDKEQKQTNTDKEKIKEKGSFSDTGLGDGKMKSDSFAPKTDSEKPFRGSQSPKRYKLRDDFEKKMADFHKEEMDDQDKDKAKGRKESEFDDEPKFMSKVIGANKNQEEEKSGKWEGLVYAPPGKEKQRKTEELEEESFPERSKKEDRGKRSEGGHRGFVPEKNFRVTAYKAVQEKSSSPPPRKTSESRDKLGAKGDFPTGKSSFSITREAQVNVRMDSFDEDLARPSGLLAQERKLCRDLVHSNKKEQEFRSIFQHIQSAQSQRSPSELFAQHIVTIVHHVKEHHFGSSGMTLHERFTKYLKRGTEQEAAKNKKSPEIHRRIDISPSTFRKHGLAHDEMKSPREPGYKAEGKYKDDPVDLRLDIERRKKHKERDLKRGKSRESVDSRDSSHSRERSAEKTEKTHKGSKKQKKHRRARDRSRSSSSSSQSSHSYKAEEYTEETEEREESTTGFDKSRLGTKDFVGPSERGGGRARGTFQFRARGRGWGRGNYSGNNNNNSNNDFQKRNREEEWDPEYTPKSKKYYLHDDREGEGSDKWVSRGRGRGAFPRGRGRFMFRKSSTSPKWAHDKFSGEEGEIEDDESGTENREEKDNIQPTTE | 3 | 1 |  |  | Total (total peptides) [5]: 45; Unique (unique peptides) [5]: 22; Total (peptides) [6]: 1; Unique (peptides) [6]: 1 |
| NOP9 (protein, UniProt Q86U38 1-636, looked up) Nucleolar protein 9: MGQGPRSPHKVGRRFPAGGKRGRGAKGSGRPLPGRKRQPWPPPDGRSEPAPDSHPHLSPEALGYFRRALSALKEAPETGEERDLMVHNIMKEVETQALALSTNRTGSEMLQELLGFSPLKPLCRVWAALRSNLRTVACHRCGVHVLQSALLQLPRLLGSAAEEEEEEEEDGKDGPTETLEELVLGLAAEVCDDFLVYCGDTHGSFVVRTLLQVLGGTILESERARPRGSQSSEAQKTPAQECKPADFEVPETFLNRLQDLSSSFLKDIAVFITDKISSFCLQVALQVLHRKLPQFCAHLCNAVIGYLSTRGSSVDGSPLLLFLRDQTSSRLLEQVLLVLEPPRLQSLFEEHLQGQLQTLAAHPIANFPLQRLLDAVTTPELLSPVFEELSPVLEAVLAQGHPGVVIALVGACRRVGAYQAKVLQLLLEAFHCAEPSSRQVACVPLFATLMAYEVYYGLTEEEGAVPAEHQVAMAAARALGDVTVLGSLLLQHLLHFSTPGLVLRSLGALTGPQLLSLAQSPAGSHVLDAILTSPSVTRKLRRRVLQNLKGQYVALACSRHGSRVLDAIWSGAALRARKEIAAELGEQNQELIRDPFGHHVARNVALTTFLKRREAWEQQQGAVAKRRRALNSILED | 4 | 4 | 2 | 2 | Total (peptides) [7]: 1; Unique (peptides) [7]: 1 |
| SRSF9 (protein, UniProt Q13242 1-221, looked up) Serine/arginine-rich splicing …: MSGWADERGGEGDGRIYVGNLPTDVREKDLEDLFYKYGRIREIELKNRHGLVPFAFVRFEDPRDAEDAIYGRNGYDYGQCRLRVEFPRTYGGRGGWPRGGRNGPPTRRSDFRVLVSGLPPSGSWQDLKDHMREAGDVCYADVQKDGVGMVEYLRKEDMEYALRKLDDTKFRSHEGETSYIRVYPERSTSYGYSRSRSGSRGRDSPYQSRGSPHYFSPFRPY | 4 | 4 | 1 | 1 |  |
